According to the supplement of paper PMC12578635:
Some of the results follow. Rule as the data show it: active = 150% or more and inactive = the rest. Most values come without repeats; read them as rough.

Test system: Staphylococcus aureus JE2-lux inside RAW 264.7 macrophages
Test: intracellular bacterial bioluminescence relative to DMSO vehicle; higher = higher intracellular bacterial metabolic activity
Details: 10 µM; treatment time 4 h; gentamicin 50 µg/ml

Compound	intracellular bacterial bioluminescence
Cn1ncc2c1CCc1sc(NC(=O)CC3SC(=O)NC3=O)nc1-2 (configuration not stated)	inactive: 94.8%
O=C1c2oc3ccccc3c(=O)c2C(c2ccccc2)N1Cc1cccnc1 (configuration not stated)	inactive: 101%
CN1C(=O)N(CC(=O)NC2CCCC2)c2cccnc2N1C	inactive: 108%
CC1Cc2ccccc2N1Cc1nnc(-c2ccccc2)o1 (configuration not stated)	inactive: 87%
COc1nn(C)cc1C(=O)Nc1ccc(C)c(C)c1	inactive: 89.2%
CC1CCCN(c2cc(C(=O)O)c3cc(NC(=O)c4ccc(Br)cc4)ccc3n2)C1 (configuration not stated)	inactive: 98.7%
Cc1cccc(C)c1OCCn1c(CO)nc2ccccc21	inactive: 91.5%
COc1ccc(-n2ccnc(SCC(=O)NCc3ccccc3)c2=O)cc1OC	inactive: 70.6%
CC(=O)c1ccc(NC(=O)CSc2ncc(C(=O)Nc3ccc(C)c(C)c3)c(=O)n2C)cc1	inactive: 98.3%
CCCc1cc(=O)[nH]c2nnc(SCC(=O)NC3CCCC3)n12	active: 150%
CCOc1ccc(C(=O)Nc2c(N)nc(SCC(=O)N(CC)CC)[nH]c2=O)cc1	inactive: 90.9%
CCOc1ccccc1NC(=O)CSc1nc2cc3c(cc2cc1C#N)OCO3	inactive: 112%
Cc1ccc(S(=O)(=O)Nc2ccccc2C(=O)Nc2sc3c(c2C#N)CCC3)cc1	inactive: 93.9%
Cc1ccc(-n2nnc(C(=O)N3CCSCC3)c2-c2ccncc2)cc1C	inactive: 104%
CC1CN(C)CCC1CCc1ccc(NC(=O)c2n[nH]c3c2CCC3)cc1 (configuration not stated)	inactive: 148%
Cc1ccc(-c2noc(-c3cccnc3N(C)Cc3ccccc3)n2)cc1	inactive: 83.5%
COc1ccc(N2CCN(c3ncnc4c3c(C)c(C)n4-c3ccccc3)CC2)cc1	inactive: 124%
Nc1c(C(=O)NCc2cccs2)c2nc3ccccc3nc2n1-c1ccc(F)cc1	inactive: 45%
Clc1ccc(Cl)c2sc(N3CCCC3)nc12	inactive: 85.1%
C=CCn1c(CSc2nc(N)cc(N)n2)n[nH]c1=S	inactive: 126%
CCOc1cccc2sc(Nc3nc4c(F)cccc4s3)nc12	inactive: 111%
Cc1ccnc(SCc2cc(=O)c(OC(=O)c3ccc(S(=O)(=O)N4CCCC4)cc3)co2)n1	inactive: 124%
CCOc1cc2c(cc1OCC)C(C)N(C(=O)c1ccc3nc(C)[nH]c3c1)CC2 (configuration not stated)	inactive: 116%

Compound	intracellular bacterial bioluminescence
CCCCN(Cc1ccccc1)c1ncnc2[nH]cnc12	inactive: 75.1%
Cc1cc2ccccc2n2c(=O)n(CC(C)NC(=O)c3ccnn3C)nc12 (configuration not stated)	inactive: 104%
CCOC(=O)CC(NC(=O)Nc1c(-c2ccncc2)[nH]c2ccc(F)cc12)c1ccccc1 (configuration not stated)	inactive: 96.2%
O=C(COc1cccc2ccc(N3CCN(c4ccccc4)CC3)nc12)Nc1cccc(F)c1	inactive: 85.1%
CCCCOc1ccccc1C1CC(=O)Nc2c1c(C)nn2-c1nc2ccccc2s1 (configuration not stated)	inactive: 109%
COc1cccc(NC(=O)c2cc3c(=O)n4ccccc4nc3n(CC(C)C)c2=N)c1	inactive: 129%
COc1ccccc1OCC(=O)Nc1noc(-c2cccc(C)c2)n1	inactive: 84.9%
O=C(Nc1nnc(-c2ccncc2)o1)c1ccccc1I	inactive: 93.2%
COc1ccccc1Cn1cc(C(=O)c2ccccc2)c(=O)c2cc3c(cc21)OCO3	inactive: 3.97%
O=C(COc1ccc(Br)cc1)N/N=C/c1ccco1	inactive: 107%
CCOc1ccc2cc(C#N)c(SCC(=O)Nc3c[nH]c(=O)[nH]c3=O)nc2c1	inactive: 92.4%
COc1ccc(C(=O)N(Cc2cccnc2)c2nc3c(C)cc(Cl)cc3s2)cc1OC	inactive: 56.8%
O=c1[nH]cc(S(=O)(=O)N2CCCc3ccccc32)c(=O)[nH]1	inactive: 106%
CCn1c(C)cc2cc(NC(=O)COc3ncnc4ccccc34)ccc21	inactive: 8.07%
COc1cccc2s/c(=N/C(=S)NC(=O)c3ccc(C)cc3)n(C)c12	inactive: 97.2%
O=C(NCc1cccs1)c1ccc(S(=O)(=O)c2ccccc2)nc1	inactive: 97.5%
COc1ccc2cc(CCNC(=O)c3ccc(OC)c(OC)c3)c(=O)[nH]c2c1	inactive: 93.2%
CCOC(=O)c1c(NC(=O)CSc2nc(N)cc(=O)[nH]2)sc2c1CCC2	inactive: 82.4%
CN(c1ccccc1)N1C(=O)/C(=C2/C(=O)Nc3ccc(Br)cc32)SC1=S	inactive: 72.7%
N#CC1=C(N)OC2=C(C(=O)CCC2)C1c1ccc(-c2ccc(Br)cc2)o1 (configuration not stated)	inactive: 89.2%
Cc1sc2nc(C)n3c(=O)n(Cn4nnc5ccccc54)nc3c2c1C	inactive: 97.9%
O=C(NNc1nc2c(F)cc(F)cc2s1)c1ccc(F)cc1	inactive: 25.5%
CCC(Sc1nncn1C)C(=O)Nc1nnc(-c2ccc(OC)cc2OC)s1 (configuration not stated)	inactive: 49.8%

Compound	intracellular bacterial bioluminescence
O=C(NC1CCN(Cc2cccc(F)c2)CC1)c1cnn(-c2ccc(F)cc2)c1	inactive: 146%
Cc1nc(SCC(=O)NCc2ccco2)c2c3c(sc2n1)CCCC3	inactive: 82.2%
CC(c1ccccc1)n1cnc2c(cnc3nc4ccccc4n32)c1=O (configuration not stated)	inactive: 100%
CCCCc1ccc(-n2c(C)c(C)n3c4c(=O)[nH]c(=O)n(C)c4nc23)cc1	inactive: 114%
Cc1nc2c(C)cccn2c(=O)c1NC(=O)COc1ccc2ccccc2c1	inactive: 95%
Cc1ccc(NC(=O)CC2SC(=N)NC2=O)cc1 (configuration not stated)	inactive: 120%
COc1ccc(CCNC(=O)Cn2ncn3nc4c(c3c2=O)CCCC4)cc1OC	inactive: 66.7%
Cc1ccc(-n2ccn3c(CCCC(=O)O)nnc3c2=O)cc1C	inactive: 119%
COc1ccc2nc(NCCCNS(=O)(=O)c3ccc([N+](=O)[O-])cc3)c(C#N)cc2c1	inactive: 16.2%
CCOCCCNC(=O)Cn1nc(-c2ccco2)cc(N)c1=O	inactive: 95.2%
Cc1ccc(-c2nc(Cn3nnc(-c4nc(-c5ccccc5Cl)no4)c3C)c(C)o2)cc1	inactive: 81.7%
CCOc1cccc(C2Nc3c(C)cc(C)cc3[C@H]3OCCC[C@@H]23)c1OC (some centres not stated)	inactive: 81.2%
O=C1NC(c2ccc3c(c2)OCO3)C(C(=O)c2ccccc2)C(O)(C(F)(F)F)N1 (configuration not stated)	inactive: 113%
N#C/C(=C\c1ccc(-c2ccccc2[N+](=O)[O-])o1)C(=O)Nn1cnnc1	inactive: 113%
COc1ccc(NC(=O)N(CCc2ccc(OC)c(OC)c2)Cc2cc3cc(C)ccc3[nH]c2=O)cc1	inactive: 65.9%
COc1ccccc1/C=C/C=C(\C#N)c1nc2ccccc2c(=O)[nH]1	inactive: 114%
CN(Cc1cccc2ncccc12)C(=O)c1cnn(-c2ccc(F)cc2)c1	inactive: 69.3%
CCc1noc2ncnc(N3CCCC(C(=O)NCc4ccccc4F)C3)c12 (configuration not stated)	inactive: 136%
Cc1sc2ncnc(NCCC3=CCCCC3)c2c1S(=O)(=O)N1CCCCC1	inactive: 101%
Cc1n[nH]c2c1C(c1cccs1)C(C#N)=C(N)O2 (configuration not stated)	inactive: 106%
Clc1cc(Cl)c2nc(N3CCCCC3)sc2c1	inactive: 90.1%
C=CCOC(=O)C1=C(C)Nc2[nH]c(=O)[nH]c(=O)c2C1c1cccc(O)c1 (configuration not stated)	inactive: 117%
O=C(O)CCc1nnc(SCC(=O)Nc2ccc(Cl)cc2)[nH]c1=O	inactive: 129%

Reformatted as a markdown table: 3 of the compounds above.

| Compound | intracellular bacterial bioluminescence |
| --- | --- |
| Clc1ccc(Cl)c2sc(N3CCCC3)nc12 | inactive: 85.1% |
| C=CCn1c(CSc2nc(N)cc(N)n2)n[nH]c1=S | inactive: 126% |
| CCOc1cccc2sc(Nc3nc4c(F)cccc4s3)nc12 | inactive: 111% |

Continued:

Compound	intracellular bacterial bioluminescence
Cc1ccc(NC(=O)NCCNc2nc3cc(C)cc(C)c3cc2C#N)cc1	inactive: 79.5%
CSc1nc2ccc3nc(NC(=O)C4COc5ccccc5O4)sc3c2s1 (configuration not stated)	inactive: 51.3%
Cc1nc(N2CCOCC2)ncc1C(=O)NC1CCCC1	inactive: 119%
CCN1C(=O)NC2(CCN(CC(=O)Nc3ccc4c(c3)OCO4)CC2)C1=O	inactive: 113%
Cc1cc(CNC(=O)c2c(-c3ccncc3)noc2C)c2[nH]c(C)c(C)c2c1	inactive: 101%
CNS(=O)(=O)c1cc(-c2cc(C(=O)N3CCN(c4ccc(OC)cc4)CC3)n[nH]2)ccc1OC	inactive: 97.9%
COc1ccc(OC)c(NC(=O)CC2Sc3ccccc3NC2=O)c1 (configuration not stated)	inactive: 79.8%
O=C(NCC1CCCCC1)C1CCCN(C(=O)NCc2ccccc2)C1 (configuration not stated)	inactive: 127%
CC1=C(C(=O)Nc2ccccc2F)C(c2ccc(N(C)C)cc2)NC(=O)N1 (configuration not stated)	inactive: 119%
Cc1ccc(-c2nc3n(CC(=O)N4CCCCC4C)c(C)c(Cc4ccccc4)c(=O)n3n2)cc1 (configuration not stated)	inactive: 100%
Cc1cc(SCc2cccc3ccccc23)nc(=O)[nH]1	inactive: 116%
N#Cc1cc2cc3c(cc2nc1SCC(=O)N(c1ccccc1)c1ccccc1)OCO3	inactive: 120%
COc1ccccc1N1CCN(S(=O)(=O)c2c[nH]c(=O)[nH]c2=O)CC1	inactive: 129%
Cn1c(=O)oc2cc(NS(=O)(=O)c3ccc4c(c3)CCC(=O)N4)ccc21	inactive: 105%
O=C(Cn1c(=O)c2cccnc2n(-c2ccccc2)c1=O)Nc1ccc(Br)cc1	inactive: 89.2%
Cc1cc(C)c2cc(CNCCCN3CCOCC3)c3nn(C)c(=O)n3c2c1	inactive: 16%
N#CC(C(=O)c1ccc(Oc2ccccc2)cc1)=C1Nc2ccccc2N1	inactive: 96.4%
CC(=O)Nc1cccnc1-c1ccc(C(=O)NCCC2=CCCCC2)cc1	inactive: 106%
Cc1ccc(C2=NC(C)(C)N=C2SCC(=O)Nc2ccccc2)cc1	inactive: 119%
Cc1nc(NC(c2ccccc2)c2ccccc2)c2nnn(Cc3ccccc3)c2n1	inactive: 90.7%
O=C(CCC(=O)N1CCc2ccccc21)Nc1noc2ccccc12	inactive: 60.9%
COCCNc1c(-c2cccc(F)c2)nc2sc3cc(OC)ccc3n12	inactive: 102%
CCN(CC)Cc1c(O)ccc2c1O/C(=C\c1cccc(OC)c1)C2=O	inactive: 96.9%

5 structures out of the list, arranged by number of heavy atoms, descending:
Compound	intracellular bacterial bioluminescence
Cc1cc(CNC(=O)c2c(-c3ccncc3)noc2C)c2[nH]c(C)c(C)c2c1	inactive: 101%
CC(=O)Nc1cccnc1-c1ccc(C(=O)NCCC2=CCCCC2)cc1	inactive: 106%
Cn1c(=O)oc2cc(NS(=O)(=O)c3ccc4c(c3)CCC(=O)N4)ccc21	inactive: 105%
COc1ccccc1N1CCN(S(=O)(=O)c2c[nH]c(=O)[nH]c2=O)CC1	inactive: 129%
Cc1nc(N2CCOCC2)ncc1C(=O)NC1CCCC1	inactive: 119%
